Results from the supplement of paper PMC10849652.
The other results are listed elsewhere or left out.

Chains of the proteins cited; added tags and fusions are not shown. Lines headed by an entry give the natural chain unless they say otherwise; changes in a name come on top.
UniProt O95900: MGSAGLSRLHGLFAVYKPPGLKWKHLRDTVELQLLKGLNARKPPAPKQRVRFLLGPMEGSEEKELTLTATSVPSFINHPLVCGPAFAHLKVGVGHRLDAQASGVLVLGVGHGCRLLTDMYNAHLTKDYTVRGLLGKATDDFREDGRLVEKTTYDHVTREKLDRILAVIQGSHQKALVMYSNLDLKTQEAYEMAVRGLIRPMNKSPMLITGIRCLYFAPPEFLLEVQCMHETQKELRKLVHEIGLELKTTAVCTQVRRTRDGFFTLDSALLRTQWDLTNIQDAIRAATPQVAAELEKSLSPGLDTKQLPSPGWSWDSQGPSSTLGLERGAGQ
UniProt P53804: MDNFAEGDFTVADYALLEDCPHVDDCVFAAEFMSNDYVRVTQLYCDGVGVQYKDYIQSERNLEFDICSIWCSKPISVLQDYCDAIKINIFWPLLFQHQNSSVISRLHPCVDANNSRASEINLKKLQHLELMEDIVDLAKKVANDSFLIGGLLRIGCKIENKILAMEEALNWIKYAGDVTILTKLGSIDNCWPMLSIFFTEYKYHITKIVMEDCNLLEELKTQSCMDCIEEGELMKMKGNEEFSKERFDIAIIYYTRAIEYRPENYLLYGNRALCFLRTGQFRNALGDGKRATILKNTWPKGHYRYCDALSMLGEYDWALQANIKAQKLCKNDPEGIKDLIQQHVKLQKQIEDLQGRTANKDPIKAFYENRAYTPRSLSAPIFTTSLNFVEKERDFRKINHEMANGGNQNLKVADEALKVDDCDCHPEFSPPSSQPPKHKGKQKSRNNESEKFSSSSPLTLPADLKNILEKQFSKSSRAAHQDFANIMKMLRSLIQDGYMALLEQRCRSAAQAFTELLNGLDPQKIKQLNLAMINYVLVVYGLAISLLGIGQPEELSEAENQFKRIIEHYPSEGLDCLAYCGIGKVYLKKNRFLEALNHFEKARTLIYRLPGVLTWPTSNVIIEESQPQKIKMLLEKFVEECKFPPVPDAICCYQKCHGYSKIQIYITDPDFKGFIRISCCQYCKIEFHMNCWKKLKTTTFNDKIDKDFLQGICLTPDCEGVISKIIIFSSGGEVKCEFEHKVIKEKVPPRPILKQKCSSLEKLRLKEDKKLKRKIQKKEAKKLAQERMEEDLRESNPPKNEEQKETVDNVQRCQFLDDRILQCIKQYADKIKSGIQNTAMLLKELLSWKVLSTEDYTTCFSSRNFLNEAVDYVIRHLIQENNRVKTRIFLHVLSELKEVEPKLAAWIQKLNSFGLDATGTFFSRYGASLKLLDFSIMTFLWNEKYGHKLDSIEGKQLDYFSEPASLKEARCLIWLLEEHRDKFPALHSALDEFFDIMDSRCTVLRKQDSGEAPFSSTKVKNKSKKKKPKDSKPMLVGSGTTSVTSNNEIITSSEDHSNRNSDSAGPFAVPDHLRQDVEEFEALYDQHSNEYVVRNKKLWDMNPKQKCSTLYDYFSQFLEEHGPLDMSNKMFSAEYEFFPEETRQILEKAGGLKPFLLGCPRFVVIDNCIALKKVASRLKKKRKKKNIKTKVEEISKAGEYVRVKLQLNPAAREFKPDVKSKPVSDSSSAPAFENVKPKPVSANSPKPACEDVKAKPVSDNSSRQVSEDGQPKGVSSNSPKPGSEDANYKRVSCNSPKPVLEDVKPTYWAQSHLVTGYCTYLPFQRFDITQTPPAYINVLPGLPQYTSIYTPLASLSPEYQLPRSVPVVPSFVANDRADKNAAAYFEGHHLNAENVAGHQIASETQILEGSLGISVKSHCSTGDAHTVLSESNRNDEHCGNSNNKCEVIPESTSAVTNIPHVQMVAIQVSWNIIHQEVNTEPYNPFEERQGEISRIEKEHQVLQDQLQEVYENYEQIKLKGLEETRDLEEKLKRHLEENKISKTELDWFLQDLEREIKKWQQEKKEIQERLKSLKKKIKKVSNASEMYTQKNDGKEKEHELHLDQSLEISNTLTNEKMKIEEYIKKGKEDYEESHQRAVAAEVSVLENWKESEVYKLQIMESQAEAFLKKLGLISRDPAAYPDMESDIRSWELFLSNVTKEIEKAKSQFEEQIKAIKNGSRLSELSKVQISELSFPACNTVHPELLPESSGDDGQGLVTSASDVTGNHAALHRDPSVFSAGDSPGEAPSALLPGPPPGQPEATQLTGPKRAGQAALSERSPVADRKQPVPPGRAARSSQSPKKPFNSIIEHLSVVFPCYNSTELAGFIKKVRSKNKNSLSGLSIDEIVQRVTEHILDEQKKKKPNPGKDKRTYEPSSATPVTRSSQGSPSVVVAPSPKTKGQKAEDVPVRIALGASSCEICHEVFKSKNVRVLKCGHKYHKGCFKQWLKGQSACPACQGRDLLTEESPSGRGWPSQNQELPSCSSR
UniProt Q15361: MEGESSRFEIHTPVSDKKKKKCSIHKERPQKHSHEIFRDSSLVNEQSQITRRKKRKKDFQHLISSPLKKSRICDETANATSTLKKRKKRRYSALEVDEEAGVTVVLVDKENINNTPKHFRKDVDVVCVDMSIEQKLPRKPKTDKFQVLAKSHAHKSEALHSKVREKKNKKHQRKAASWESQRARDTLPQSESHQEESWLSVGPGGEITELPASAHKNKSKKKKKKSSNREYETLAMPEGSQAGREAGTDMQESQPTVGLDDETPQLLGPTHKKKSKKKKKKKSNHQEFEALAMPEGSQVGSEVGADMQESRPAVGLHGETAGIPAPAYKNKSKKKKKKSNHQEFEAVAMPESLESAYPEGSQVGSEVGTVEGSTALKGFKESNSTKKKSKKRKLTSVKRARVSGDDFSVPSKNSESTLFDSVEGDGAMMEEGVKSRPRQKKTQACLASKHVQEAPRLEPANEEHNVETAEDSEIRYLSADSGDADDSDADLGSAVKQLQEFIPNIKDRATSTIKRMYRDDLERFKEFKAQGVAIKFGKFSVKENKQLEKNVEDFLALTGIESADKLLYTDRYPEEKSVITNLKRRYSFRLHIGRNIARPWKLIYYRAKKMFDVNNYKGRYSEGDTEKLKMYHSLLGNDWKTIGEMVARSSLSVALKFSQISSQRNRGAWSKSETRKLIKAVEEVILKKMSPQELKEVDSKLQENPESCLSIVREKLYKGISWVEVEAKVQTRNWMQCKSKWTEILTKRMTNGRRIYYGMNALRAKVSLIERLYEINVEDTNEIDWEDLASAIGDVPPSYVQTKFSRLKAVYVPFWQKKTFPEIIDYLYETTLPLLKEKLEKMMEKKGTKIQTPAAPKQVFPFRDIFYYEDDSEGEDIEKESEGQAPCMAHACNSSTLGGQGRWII
UniProt Q96QT4: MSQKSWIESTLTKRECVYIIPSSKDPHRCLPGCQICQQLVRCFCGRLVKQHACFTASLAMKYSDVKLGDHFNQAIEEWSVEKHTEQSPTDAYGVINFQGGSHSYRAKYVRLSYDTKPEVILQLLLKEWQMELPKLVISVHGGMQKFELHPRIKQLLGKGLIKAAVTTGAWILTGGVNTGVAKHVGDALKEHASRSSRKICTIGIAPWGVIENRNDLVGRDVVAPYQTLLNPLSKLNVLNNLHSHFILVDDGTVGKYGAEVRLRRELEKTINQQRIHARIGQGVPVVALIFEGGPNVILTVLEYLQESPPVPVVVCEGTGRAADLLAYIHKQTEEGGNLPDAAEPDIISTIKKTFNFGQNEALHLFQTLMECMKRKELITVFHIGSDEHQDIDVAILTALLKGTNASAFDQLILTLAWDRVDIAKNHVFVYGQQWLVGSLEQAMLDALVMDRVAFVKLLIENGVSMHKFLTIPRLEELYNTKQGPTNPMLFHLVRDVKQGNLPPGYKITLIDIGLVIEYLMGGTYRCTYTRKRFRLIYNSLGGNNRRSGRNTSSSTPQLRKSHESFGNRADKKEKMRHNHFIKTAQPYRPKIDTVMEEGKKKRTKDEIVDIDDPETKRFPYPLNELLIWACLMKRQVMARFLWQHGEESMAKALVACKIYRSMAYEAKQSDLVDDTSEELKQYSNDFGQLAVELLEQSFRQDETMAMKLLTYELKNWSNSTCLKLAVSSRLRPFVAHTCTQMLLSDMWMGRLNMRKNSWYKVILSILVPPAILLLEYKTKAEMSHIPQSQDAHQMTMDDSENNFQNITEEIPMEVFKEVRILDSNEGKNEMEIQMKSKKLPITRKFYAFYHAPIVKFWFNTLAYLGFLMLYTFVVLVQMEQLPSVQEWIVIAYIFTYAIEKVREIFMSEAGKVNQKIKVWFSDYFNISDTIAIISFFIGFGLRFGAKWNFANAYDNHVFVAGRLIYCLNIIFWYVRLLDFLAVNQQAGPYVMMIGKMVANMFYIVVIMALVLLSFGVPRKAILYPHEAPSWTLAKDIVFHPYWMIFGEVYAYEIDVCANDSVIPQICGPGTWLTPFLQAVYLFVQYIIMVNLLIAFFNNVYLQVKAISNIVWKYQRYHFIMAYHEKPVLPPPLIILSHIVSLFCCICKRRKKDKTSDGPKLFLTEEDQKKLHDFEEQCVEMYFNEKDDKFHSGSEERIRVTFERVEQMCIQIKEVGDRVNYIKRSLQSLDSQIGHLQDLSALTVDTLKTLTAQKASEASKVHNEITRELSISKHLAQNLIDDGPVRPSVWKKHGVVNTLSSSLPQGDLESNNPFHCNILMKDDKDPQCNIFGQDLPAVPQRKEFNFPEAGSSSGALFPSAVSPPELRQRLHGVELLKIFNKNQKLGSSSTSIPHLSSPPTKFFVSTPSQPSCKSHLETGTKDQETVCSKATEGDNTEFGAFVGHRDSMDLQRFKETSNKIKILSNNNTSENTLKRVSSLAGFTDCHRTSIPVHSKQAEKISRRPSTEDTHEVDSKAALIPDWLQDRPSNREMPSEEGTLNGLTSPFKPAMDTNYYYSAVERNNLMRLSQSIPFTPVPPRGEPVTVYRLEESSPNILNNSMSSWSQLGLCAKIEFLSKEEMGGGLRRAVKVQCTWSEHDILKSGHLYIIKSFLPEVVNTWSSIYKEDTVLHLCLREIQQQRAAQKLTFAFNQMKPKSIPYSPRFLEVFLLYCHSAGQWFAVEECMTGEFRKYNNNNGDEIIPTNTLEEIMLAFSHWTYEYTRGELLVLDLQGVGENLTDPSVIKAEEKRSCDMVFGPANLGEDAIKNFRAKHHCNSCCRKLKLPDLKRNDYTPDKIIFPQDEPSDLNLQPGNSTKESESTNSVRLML
UniProt Q8N831: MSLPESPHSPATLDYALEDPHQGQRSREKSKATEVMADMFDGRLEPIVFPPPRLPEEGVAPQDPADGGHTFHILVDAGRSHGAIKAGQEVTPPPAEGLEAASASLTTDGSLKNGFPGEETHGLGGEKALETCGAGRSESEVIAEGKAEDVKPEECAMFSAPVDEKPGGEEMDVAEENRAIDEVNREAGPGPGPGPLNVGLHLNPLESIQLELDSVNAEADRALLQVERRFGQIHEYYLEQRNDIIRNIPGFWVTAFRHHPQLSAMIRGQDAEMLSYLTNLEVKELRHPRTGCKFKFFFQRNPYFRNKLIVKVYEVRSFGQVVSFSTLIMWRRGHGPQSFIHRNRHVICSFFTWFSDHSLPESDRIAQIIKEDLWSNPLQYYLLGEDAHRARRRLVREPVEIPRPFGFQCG
UniProt O14817: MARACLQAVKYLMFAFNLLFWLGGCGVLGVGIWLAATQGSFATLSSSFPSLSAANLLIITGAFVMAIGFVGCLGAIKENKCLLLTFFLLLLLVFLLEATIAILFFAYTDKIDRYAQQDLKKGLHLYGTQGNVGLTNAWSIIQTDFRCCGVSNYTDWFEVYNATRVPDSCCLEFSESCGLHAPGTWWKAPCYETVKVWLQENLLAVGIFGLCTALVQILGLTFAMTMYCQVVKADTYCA
UniProt Q12899: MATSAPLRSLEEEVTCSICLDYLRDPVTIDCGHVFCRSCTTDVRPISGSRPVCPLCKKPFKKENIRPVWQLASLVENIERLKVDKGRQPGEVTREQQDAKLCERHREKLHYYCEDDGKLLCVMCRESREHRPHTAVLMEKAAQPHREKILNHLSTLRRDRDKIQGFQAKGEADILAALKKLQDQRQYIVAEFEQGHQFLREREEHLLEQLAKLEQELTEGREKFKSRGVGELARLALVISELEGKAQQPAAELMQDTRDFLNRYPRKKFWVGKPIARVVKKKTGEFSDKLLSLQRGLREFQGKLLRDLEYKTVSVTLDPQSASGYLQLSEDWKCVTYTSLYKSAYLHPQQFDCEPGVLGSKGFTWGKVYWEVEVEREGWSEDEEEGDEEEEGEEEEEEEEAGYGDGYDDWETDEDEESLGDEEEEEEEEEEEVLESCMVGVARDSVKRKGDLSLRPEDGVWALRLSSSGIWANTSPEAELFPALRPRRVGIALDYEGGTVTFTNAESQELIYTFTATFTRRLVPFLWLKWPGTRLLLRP
UniProt Q12999: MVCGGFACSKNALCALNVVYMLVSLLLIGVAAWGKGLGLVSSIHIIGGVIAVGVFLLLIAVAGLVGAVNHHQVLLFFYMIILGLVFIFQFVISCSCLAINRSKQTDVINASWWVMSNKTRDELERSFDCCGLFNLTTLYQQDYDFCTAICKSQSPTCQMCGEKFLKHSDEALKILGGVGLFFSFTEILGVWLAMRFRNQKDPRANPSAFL

Experiments:
Test in all cases: log2 fold change, soluble protein after heating vs DMSO (PISA); higher = thermal stabilisation; K562 lysate, 10 uM; active = over 0.2 and 3.5 SD of the protein, either way, in both replicates (recomputed)
ralimetinib = compound: CC(C)(C)Cn1c(N)nc2ccc(-c3[nH]c(C(C)(C)C)nc3-c3ccc(F)cc3)nc21 [ralimetinib]
Method in brief: (§1)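 Values give the log-two fold change in thermal stability against solvent controls, from duplicates. Crude K562 extract at 1 mg/mL protein, made by dounce homogenisation in PBS pH 7.4 with 1 mM MgCl2, was treated with 10 μM compound for 30 min. After 3 min heating across 48°C-58°C, aliquots were pooled, adjusted to 0.5% NP-40 at 4°C and centrifuged at 21,000xg for 90 min. The supernatant was measured by TMTpro 16plex LC-MS/MS with channel sums equalised.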

[1] = compound: CC(C)(O)CC(=O)NCCn1ccc2ncnc(Nc3ccc(Oc4cccc(C(F)(F)F)c4)c(Cl)c3)c21
Method in brief: as §1

[2] = compound: CC(C)C1=C2N=C(C=C(N2N=C1)NCC3=CC=CC=C3)NCCCCCCN
Method in brief: as §1

[3] = compound: CC1=C(C2=C(C=C1)C(=O)C3=CC=CC=C3N2CCCN)C
Method in brief: as §1

[4] = compound: CC1=C(C=C(C=C1)NC(=O)C2=CC(=CC=C2)N(C)C)NC(=O)C3=CC=C(C=C3)O
Method in brief: as §1

[5] = compound: CC1=C(C(CC(=O)N1)C2=CC=C(C=C2)C(F)(F)F)C(=O)NC3=C(C=C4C(=C3)C=NN4)F
Method in brief: as §1

[6] = compound: CC(=O)c1cnc2ccc(-c3cc(Cl)c(O)c(Cl)c3)nc2c1N[C@H]1CC[C@H](CN(C)C)CC1
Method in brief: as §1

[7] = compound: CC1=C(C=C(C=C1)NC(=O)C2=CC(=CC=C2)C(C)(C)C#N)NC3=CC4=C(C=C3)N=CN(C4=O)C
Method in brief: as §1

[8] = compound: CC1=CC=C(C=C1)SC2=C3C=C(SC3=CN=C2)C(=O)N
Method in brief: as §1

Measured: log2 fold change

TRUB2 (UniProt O95900)
inactive: ralimetinib 0.034 | [1] 0.039 | [2] 0.015 | [3] -0.013 | [4] -0.001

TTC3 (UniProt P53804)
inactive: ralimetinib 0.212 | [1] 0.147 | [2] 0.04 | [5] 0.034 | [3] 0.087 | [4] -0.031

TTF1 (UniProt Q15361)
inactive: [5] 0.065

TRPM7 (UniProt Q96QT4)
inactive: [6] -0.231 | ralimetinib 0.102 | [1] -0.257 | [5] 0.04 | [3] -0.003 | [7] -0.131 | [4] -0.01 | [8] -0.039

TSC22D3 isoform 3 (UniProt Q99576)
inactive: ralimetinib 0.29 | [1] -0.184 | [2] -0.049 | [7] 0.143 | [4] 0.175

TSPYL6 (UniProt Q8N831)
inactive: ralimetinib 0.118 | [1] -0.134 | [2] -0.013 | [3] -0.019 | [4] 0.023

TSPAN4 (UniProt O14817)
inactive: ralimetinib 0.19 | [1] -0.136 | [2] 0.007 | [7] -0.071 | [4] -0.069

TTC7A isoform 4 (UniProt Q9ULT0)
inactive: [5] 0.257

TRIM26 (UniProt Q12899)
inactive: [6] -0.254 | ralimetinib -0.091 | [1] 0.116 | [5] 0.056 | [7] 0.048 | [4] -0.09 | [8] 0.203

TSPAN31 (UniProt Q12999)
inactive: [3] 0.114 | [7] -0.088
